Laboratory results taken from US9796659B2, “Derivatives of polyhydroxy compounds” (RATIOPHARM GMBH, priority 2014, dated 2017).
For at least one compound, name, drawing or mass did not settle the structure.

System: MOG35-55-induced experimental autoimmune encephalomyelitis (EAE)
Experiment: MOG35-55-induced experimental autoimmune encephalomyelitis (EAE) in the mouse
Assay type: in vivo, male C57BL/6 mice
Details: prophylactic treatment from day 1; observations day 1 to 13; dose formulation 11.54 mM, 10 ml/kg
Procedure: The pharmacological efficacy was investigated in experimental autoimmune encephalomyelitis (EAE) in the mouse.
The experiments were performed as follows: male C57BL/6 mice, 12 weeks old, 10 animals per treatment group, were used. On day 1, animals were immunized by sub-cutaneous injection of MOG35-55, which was mixed in complete Freund's adjuvants. On the same day as well as on day 3 the animals received a sub-cutaneous injection of Pertussis-toxin.
Assessment and comparison of the efficacy of compounds of the invention and DMF (reference) in MOG35-55-induced experimental autoimmune encephalomyelitis (EAE) in C57BL/6 mice. • Test system: male C57BL/6 mice, 12 weeks old; 10 animals per treatment group; • Induction of EAE: Day 1—subcutaneous injection of MOG35-55, suspended in complete Freund's adjuvants and intraperitoneal injection of pertussis toxin. • Day 3—intraperitoneal injection of pertussis toxin. • Treatment: Dimethylfumarate and test substances or vehicle only were administered via oral and intravenous route. For oral administration, test substances were dissolved or suspended in 0.5% hydroxyethylcellulose (dissolved in 50 mM potassium dihydrogenphosphate, pH 5.0). […]

COC(=O)/C=C/C(=O)OCC(O)COC(=O)/C=C/C(=O)OC [Example 7, (E)-But-2-enedioic acid 2-hydroxy-3-((E)-3-methoxycarbonyl-acryloyloxy)-propyl ester methyl ester]
body weight: remained stable | clinical symptoms (clinical score, grade 0-10): protected from the development of clinical symptoms
